According to publication doi:10.1101/2024.11.01.621267:
These are yes or no findings as the source states them, for the method shown. Binding seen in cells or lysates may run through a third protein. Some results given as binding are weak or reduced against the parent protein; the word gives no strength.

Amino acid sequences for entries named in this document (tags omitted).
UniProt P11940: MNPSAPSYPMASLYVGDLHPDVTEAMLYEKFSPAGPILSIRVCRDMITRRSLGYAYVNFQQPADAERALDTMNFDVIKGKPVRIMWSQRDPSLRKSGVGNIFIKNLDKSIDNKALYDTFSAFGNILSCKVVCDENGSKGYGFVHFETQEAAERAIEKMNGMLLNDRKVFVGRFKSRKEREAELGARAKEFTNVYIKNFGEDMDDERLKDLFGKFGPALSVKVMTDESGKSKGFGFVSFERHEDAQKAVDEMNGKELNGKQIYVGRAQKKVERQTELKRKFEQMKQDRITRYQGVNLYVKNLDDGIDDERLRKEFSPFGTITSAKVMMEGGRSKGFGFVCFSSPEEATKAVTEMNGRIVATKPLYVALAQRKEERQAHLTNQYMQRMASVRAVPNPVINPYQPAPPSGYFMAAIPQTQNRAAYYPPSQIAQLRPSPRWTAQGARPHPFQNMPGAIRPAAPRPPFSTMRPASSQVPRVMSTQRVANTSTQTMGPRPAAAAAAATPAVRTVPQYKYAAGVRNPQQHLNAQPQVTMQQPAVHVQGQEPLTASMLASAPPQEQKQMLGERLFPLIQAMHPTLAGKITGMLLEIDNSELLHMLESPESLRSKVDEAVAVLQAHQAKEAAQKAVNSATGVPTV

Assays:
Assay in all cases: co-IP; anti-FLAG M2 magnetic beads, extract of HEK293 cells transfected with FLAG-tagged constructs; 4°C 2 hours; 50 mM Tris, 75 mM NaCl, 0.05% NP-40; blot with anti-RACK1 or anti-PABP1
FLAG-LARP4-W22A (human) = FLAG-LARP4-W22A (human) (UniProt Q71RC2)
FLAG-LARP4-W22F (human) = FLAG-LARP4-W22F (human) (UniProt Q71RC2)
[1] = biological target: FLAG-tagged LARP4-R1 (human) (UniProt Q71RC2)
[2] = biological target: FLAG-tagged LARP4-WT (human) (UniProt Q71RC2)
[3] = biological target: FLAG-tagged LARP4-ΔRIR (human) (UniProt Q71RC2)

Measured: binding

cytoplasmic poly(A)-binding protein (PABPC1/PABP), endogenous in HEK293 cells (from UniProt P11940 1-636)
binds: all assays above
